Laboratory results from US5504189 (dated 1996).

Assay: general procedure: solution-phase peptide synthesis; BOP-Cl / ethyldiisopropylamine; pentafluorophenyl ester for cyclisation

Substance | step yield (late stage modification step, overall) [%] | cyclisation yield (cyclisation step) [%]
Cyclo- N-hexanoyl-O- N- (2S,3S,4S)-4- (3S,4R,5S)-4-amino-3-(hydroxy)-5-methylheptanoyl!oxy-3-(hydroxy)-2,5-dimethyl-hexanoyl!-L-leucyl!-L-prolyl-N, O-dimethyl-L-tyrosyl!-L-threonyl! | 90 | 
Cyclo- N^ε -benzyloxycarbonyl-N^β - N- (2S,3S,4S)-4- (3S,4R,5S)-4-amino-3-(hydroxy)-5-methylheptanoyl!oxy-3-(hydroxy)-2,5-dimethylhexanoyl!-L-leucyl!-L-prolyl- N,O-dimethyl-L-tyrosyl!-(2S, 3R)-diaminobutyryl! |  | 42.2
